At least one result comes from cells or an extract, where the contact may be indirect. For some of these results: No signal at the amounts used counts as a negative. For some of these results: The exact form of at least one protein or probe is not confirmed.
How the values were obtained:
Assay in all cases: EMSA
Details in all cases: EMSA: 5 ug total lysate in RIPA with RNase inhibitor, 2 ug tRNA, 1 uM unlabelled (GU)x6 and […] biotin-(GU)x6, 30 min room temperature, 6% native PAGE; protein in a lysate after overexpression; residues 1-414; protein details: N-terminal GFP (pEGFP-C1)
GFP-TDP-43 M337V = GFP-TDP-43 M337V (UniProt Q13148)
GFP-TDP-43 K181A = GFP-TDP-43 K181A (UniProt Q13148)
GFP-TDP-43 K181E = GFP-TDP-43 K181E (UniProt Q13148)
GFP-TDP-43 K263E = GFP-TDP-43 K263E (UniProt Q13148)
GFP-TDP-43 Q331K = GFP-TDP-43 Q331K (UniProt Q13148)
GFP-TDP-43 D169G = GFP-TDP-43 D169G (UniProt Q13148)
GFP-TDP-43 WT = GFP-TDP-43 WT (UniProt Q13148)

Sequence: CGUGUGUGUGUGUGGU [(GU)x6 RNA]
- binding result (GFP-TDP-43 M337V): binds
- binding result (GFP-TDP-43 K181A): binds
- binding result (GFP-TDP-43 K181E): no binding
- binding result (GFP-TDP-43 K263E): no binding
- binding result (GFP-TDP-43 Q331K): binds
- binding result (GFP-TDP-43 D169G): binds
- binding result (GFP-TDP-43 WT): binds

Reference: publication PMC6885686
